Our source for the binding values is PMC8216455.

Protein sequences, listed by entry. Tags and fused reporters are not part of them. Lines headed by an entry give the natural chain unless they say otherwise; changes in a name come on top.
UniProt O14929: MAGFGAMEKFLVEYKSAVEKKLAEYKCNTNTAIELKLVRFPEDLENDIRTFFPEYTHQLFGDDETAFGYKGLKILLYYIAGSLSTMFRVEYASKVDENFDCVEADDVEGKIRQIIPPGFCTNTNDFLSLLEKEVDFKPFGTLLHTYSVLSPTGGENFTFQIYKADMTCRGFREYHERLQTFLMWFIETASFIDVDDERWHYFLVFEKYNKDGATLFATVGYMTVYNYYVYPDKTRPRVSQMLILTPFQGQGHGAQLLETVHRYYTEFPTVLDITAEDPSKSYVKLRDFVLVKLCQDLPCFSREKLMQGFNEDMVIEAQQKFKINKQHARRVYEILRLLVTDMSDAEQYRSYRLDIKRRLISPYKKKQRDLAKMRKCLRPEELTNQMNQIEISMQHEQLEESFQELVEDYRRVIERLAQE
UniProt Q16576: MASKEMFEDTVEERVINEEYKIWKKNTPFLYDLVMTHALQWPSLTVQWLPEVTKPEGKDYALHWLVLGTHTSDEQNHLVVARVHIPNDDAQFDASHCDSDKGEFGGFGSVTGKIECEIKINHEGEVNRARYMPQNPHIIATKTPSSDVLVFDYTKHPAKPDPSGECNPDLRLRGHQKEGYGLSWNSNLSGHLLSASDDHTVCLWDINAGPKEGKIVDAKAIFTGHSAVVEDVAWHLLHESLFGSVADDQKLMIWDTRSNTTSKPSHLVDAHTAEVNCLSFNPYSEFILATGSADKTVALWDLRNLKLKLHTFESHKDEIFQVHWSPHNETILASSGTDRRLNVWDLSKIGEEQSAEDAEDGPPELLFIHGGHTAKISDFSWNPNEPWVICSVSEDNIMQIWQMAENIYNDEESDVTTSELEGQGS
UniProt I7MML9: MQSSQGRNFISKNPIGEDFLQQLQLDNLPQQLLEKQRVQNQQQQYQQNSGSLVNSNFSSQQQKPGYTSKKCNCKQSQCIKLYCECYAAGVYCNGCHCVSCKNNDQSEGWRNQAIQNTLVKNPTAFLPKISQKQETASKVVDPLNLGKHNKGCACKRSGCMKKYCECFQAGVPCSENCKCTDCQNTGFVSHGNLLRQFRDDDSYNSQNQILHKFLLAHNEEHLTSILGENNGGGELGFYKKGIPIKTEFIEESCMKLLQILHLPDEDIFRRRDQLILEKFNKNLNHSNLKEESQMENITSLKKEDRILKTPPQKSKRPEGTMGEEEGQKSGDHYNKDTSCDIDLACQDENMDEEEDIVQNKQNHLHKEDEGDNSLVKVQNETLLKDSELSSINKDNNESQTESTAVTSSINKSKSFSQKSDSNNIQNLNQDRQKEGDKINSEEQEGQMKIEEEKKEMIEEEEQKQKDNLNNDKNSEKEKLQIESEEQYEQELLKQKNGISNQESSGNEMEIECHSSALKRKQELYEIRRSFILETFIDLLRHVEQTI
UniProt I7MMT8: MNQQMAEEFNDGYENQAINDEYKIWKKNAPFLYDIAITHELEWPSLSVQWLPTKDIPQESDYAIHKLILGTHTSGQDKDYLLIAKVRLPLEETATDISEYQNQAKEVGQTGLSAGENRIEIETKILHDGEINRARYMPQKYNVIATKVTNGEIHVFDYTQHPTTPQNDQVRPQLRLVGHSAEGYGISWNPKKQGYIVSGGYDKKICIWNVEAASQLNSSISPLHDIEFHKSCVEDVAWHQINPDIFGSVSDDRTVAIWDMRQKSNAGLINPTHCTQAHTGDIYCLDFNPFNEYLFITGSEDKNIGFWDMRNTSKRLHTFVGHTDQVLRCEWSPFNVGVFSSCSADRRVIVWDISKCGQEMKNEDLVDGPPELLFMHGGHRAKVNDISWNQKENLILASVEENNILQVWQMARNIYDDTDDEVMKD
UniProt Q23BX5: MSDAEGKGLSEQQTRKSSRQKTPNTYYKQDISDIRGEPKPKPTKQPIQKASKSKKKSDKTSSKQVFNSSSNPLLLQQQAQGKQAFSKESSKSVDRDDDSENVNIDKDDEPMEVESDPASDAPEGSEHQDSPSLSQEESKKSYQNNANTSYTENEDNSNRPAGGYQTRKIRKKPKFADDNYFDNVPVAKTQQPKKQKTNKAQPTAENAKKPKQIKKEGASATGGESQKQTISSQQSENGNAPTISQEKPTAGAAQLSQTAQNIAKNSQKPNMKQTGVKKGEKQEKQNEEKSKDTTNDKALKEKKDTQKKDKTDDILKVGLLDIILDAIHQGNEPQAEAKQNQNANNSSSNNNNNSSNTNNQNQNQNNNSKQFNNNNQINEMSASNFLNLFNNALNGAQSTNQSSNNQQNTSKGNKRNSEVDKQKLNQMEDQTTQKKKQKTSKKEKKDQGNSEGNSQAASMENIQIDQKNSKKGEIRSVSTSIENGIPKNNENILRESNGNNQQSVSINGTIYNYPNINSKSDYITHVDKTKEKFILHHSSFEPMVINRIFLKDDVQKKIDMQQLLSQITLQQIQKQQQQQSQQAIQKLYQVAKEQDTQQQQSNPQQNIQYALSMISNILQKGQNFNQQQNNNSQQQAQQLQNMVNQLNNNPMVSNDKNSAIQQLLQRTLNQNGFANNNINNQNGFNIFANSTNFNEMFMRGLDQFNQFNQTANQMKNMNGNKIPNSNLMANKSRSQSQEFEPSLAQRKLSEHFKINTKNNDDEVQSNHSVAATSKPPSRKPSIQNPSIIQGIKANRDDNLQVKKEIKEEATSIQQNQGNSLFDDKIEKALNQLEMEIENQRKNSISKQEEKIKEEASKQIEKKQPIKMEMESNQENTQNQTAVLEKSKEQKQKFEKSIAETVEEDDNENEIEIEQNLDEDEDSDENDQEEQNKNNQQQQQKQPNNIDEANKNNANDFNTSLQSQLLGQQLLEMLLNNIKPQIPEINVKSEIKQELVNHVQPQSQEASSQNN
UniProt I7MKQ3: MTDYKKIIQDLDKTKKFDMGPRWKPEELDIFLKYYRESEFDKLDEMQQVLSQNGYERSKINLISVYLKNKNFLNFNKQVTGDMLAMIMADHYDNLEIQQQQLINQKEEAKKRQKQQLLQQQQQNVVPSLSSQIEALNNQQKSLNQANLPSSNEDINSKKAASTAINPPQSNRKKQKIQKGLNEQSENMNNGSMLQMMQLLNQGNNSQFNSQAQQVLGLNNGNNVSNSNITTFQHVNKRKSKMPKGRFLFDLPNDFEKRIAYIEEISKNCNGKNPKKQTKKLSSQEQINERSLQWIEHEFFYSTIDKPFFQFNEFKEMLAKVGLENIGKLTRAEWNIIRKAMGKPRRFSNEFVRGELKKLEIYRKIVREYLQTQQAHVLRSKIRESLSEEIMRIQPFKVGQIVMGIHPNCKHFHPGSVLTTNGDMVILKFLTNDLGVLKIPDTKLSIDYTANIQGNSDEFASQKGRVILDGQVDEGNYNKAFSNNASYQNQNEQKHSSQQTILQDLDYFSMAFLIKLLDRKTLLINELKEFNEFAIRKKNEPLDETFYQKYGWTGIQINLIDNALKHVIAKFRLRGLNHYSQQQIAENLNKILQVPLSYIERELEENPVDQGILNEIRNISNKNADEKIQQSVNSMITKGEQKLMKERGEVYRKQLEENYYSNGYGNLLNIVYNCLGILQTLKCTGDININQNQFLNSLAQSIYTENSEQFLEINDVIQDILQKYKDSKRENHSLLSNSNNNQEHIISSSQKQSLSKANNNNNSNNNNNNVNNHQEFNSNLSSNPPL
UniProt I7MAZ7: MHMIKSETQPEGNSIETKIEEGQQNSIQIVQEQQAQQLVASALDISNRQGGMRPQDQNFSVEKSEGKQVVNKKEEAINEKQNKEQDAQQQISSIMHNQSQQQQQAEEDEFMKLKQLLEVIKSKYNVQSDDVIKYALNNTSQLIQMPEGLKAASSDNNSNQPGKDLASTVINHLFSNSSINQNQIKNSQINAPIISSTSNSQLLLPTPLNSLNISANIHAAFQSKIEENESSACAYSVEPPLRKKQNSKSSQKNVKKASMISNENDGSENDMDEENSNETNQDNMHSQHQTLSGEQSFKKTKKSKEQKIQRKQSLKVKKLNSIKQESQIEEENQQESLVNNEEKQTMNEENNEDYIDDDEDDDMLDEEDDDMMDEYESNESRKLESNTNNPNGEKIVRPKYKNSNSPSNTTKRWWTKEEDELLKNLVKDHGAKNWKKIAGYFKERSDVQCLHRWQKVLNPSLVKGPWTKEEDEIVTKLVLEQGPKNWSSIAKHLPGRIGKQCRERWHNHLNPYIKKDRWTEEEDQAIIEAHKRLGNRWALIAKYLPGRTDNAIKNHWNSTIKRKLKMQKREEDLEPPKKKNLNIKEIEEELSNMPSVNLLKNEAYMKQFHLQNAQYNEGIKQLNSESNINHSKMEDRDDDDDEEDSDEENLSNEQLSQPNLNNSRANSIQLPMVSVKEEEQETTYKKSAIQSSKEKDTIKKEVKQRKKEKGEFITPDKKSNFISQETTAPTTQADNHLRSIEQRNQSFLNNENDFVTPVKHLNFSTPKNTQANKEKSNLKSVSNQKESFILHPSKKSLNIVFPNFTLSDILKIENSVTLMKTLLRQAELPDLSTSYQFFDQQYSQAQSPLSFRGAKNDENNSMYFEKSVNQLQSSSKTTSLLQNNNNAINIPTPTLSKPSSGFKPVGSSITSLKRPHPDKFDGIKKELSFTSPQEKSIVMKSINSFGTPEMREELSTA
UniProt I7M9A9: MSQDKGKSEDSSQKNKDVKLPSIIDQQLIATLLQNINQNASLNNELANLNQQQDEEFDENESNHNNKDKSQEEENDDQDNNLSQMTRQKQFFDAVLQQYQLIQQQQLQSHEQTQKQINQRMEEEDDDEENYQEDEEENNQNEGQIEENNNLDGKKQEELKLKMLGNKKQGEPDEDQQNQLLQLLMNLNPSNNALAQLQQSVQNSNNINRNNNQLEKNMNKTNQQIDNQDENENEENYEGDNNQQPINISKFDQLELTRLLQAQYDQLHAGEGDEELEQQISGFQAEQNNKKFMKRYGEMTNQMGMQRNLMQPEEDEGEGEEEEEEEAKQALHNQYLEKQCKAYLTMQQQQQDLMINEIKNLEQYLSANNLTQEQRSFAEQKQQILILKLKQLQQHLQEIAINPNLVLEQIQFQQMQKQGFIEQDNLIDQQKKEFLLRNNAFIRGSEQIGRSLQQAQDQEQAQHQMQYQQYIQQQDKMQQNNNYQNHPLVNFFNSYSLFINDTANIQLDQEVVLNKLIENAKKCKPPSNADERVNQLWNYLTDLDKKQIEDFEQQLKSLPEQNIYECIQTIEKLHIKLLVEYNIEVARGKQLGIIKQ
UniProt Q23BW6: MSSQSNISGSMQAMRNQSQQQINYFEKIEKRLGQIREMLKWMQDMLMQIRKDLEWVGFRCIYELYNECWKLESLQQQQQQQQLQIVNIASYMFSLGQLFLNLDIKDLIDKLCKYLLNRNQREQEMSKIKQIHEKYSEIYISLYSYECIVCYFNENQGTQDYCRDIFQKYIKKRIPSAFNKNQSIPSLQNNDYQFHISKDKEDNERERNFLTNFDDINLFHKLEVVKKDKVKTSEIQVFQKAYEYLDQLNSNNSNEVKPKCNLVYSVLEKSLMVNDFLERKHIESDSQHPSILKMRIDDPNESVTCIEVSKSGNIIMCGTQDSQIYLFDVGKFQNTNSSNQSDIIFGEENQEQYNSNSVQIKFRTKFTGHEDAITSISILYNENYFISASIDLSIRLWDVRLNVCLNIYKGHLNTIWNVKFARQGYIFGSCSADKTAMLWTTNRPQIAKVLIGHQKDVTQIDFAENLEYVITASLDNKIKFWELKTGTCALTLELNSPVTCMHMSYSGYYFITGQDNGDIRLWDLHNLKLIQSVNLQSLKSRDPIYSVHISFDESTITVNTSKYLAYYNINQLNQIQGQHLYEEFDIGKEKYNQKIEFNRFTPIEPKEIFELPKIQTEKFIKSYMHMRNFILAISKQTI
UniProt Q22RW2: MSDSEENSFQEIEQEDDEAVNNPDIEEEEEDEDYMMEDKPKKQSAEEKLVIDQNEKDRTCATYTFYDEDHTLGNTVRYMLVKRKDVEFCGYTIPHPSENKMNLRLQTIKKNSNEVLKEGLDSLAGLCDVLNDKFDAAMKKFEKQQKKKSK
UniProt Q22A33: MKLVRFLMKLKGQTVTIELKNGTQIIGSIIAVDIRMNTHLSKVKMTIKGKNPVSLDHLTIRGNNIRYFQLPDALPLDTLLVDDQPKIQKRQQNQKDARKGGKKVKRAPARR
UniProt I7M4G6: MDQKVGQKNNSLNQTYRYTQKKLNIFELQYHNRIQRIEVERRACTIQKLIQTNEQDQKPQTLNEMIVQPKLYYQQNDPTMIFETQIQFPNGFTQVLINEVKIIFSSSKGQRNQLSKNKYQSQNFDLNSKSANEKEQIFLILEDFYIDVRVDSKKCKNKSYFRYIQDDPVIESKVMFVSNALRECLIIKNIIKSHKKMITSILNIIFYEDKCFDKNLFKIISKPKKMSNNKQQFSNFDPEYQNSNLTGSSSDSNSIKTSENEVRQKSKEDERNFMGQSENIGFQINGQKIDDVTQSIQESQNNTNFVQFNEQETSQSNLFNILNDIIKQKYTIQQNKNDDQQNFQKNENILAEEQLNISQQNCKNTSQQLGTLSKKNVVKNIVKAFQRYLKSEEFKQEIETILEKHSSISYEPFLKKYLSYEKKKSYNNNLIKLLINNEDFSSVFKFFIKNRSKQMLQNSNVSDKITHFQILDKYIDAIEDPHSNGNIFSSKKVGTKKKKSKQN

Results are given in words; binding and its absence hold for the method and conditions named. Binding seen in cells or lysates may run through a third protein. These calls come from enrichment with a bait or labelling near it, and not all partners need be listed. For some of these results: No binding means not detected with the bait.

The first experiment deals with EGFP-tagged RBBP4 (human) (UniProt Q09028). Description: affinity purification with mass spectrometry; HEK293 (Flp-In T-REx) cells expressing GFP-tagged bait, 24 h doxycycline; lysis in 10 mM Tris-HCl pH 8.0, 420 mM NaCl, 0.1% NP-40, sonicated, Benzonase; anti-GFP antibody and Protein G Dynabeads; SAINTexpress, FDR ≤ 0.01, against GFP alone.
As to “Hat1 (human) (from UniProt O14929 1-419)”, the binding result is “no binding”.

Another experiment has as its target EGFP-tagged RBBP7 (human) (UniProt Q16576). The description is as above.
On to “Hat1 (human) (from UniProt O14929 1-419)”, for which the binding entry is recorded as “binds”.

In the next experiment the target is Anqa1-FZZ (TTHERM_00766460) (Tetrahymena thermophila) (UniProt I7MML9). Description: affinity purification with mass spectrometry; vegetatively growing Tetrahymena; FZZ-tagged bait from its endogenous MAC locus; whole cell extract in 10 mM Tris-HCl pH 7.5, 1 mM MgCl2, 300 mM NaCl, 0.2% NP40, Benzonase; M2-agarose at 4°C; SAINTexpress, FDR ≤ 0.01, against untagged cells.
With “RebL1 (retinoblastoma binding protein 4/7-like 1), TTHERM_00688660 (from UniProt I7MMT8)”, the binding entry is “binds”.

In the case of “Jinn1 (TTHERM_00227070) (from UniProt Q23BX5)”, the binding entry is listed as “binds”.

As to “Lin9^Tt (TTHERM_00591560) (from UniProt I7MKQ3)”, the binding entry is “binds”.

On to “MybL1, putative MYB-like TF (TTHERM_00842380) (from UniProt I7MAZ7)”, for which the binding entry is “binds”.

Regarding “Jinn2 (TTHERM_00147500) (from UniProt I7M9A9)”, the binding entry is given as “binds”.

For the next experiment, the target named is Lin9^Tt-FZZ (Tetrahymena thermophila) (UniProt I7MKQ3). The description is as above.
As to “RebL1 (retinoblastoma binding protein 4/7-like 1), TTHERM_00688660 (from UniProt I7MMT8)”, the binding result is “binds”.

As for “Jinn1 (TTHERM_00227070) (from UniProt Q23BX5)”, the binding entry is “binds”.

Regarding “Anqa1 (Lin54-like protein, TTHERM_00766460) (from UniProt I7MML9)”, the binding result is recorded as “binds”.

“Jinn2 (TTHERM_00147500) (from UniProt I7M9A9)”: the binding result was “binds”.

For the next experiment, the target named is RebL1-FZZ (Tetrahymena thermophila) (UniProt I7MMT8). Described as above.
Consider “Jinn1 (TTHERM_00227070) (from UniProt Q23BX5)”, for which the binding result is “binds”.

Turning to “Anqa1 (Lin54-like protein, TTHERM_00766460) (from UniProt I7MML9)”, the binding entry is “binds”.

Take “Lin9^Tt (TTHERM_00591560) (from UniProt I7MKQ3)”: the binding entry is reported as “binds”.

In the case of “MybL1, putative MYB-like TF (TTHERM_00842380) (from UniProt I7MAZ7)”, the binding entry was “binds”.

For the substance “TTHERM_00219420, similar to the human p60 (S. cerevisiae Cac2) subunit of the CAF1 complex (from UniProt I7MFN1)”, the binding result is “binds”.

With “Jinn2 (TTHERM_00147500) (from UniProt I7M9A9)”, the binding entry was “binds”.

The target in the next experiment is Anqa1-FZZ (TTHERM_00766460) (Tetrahymena thermophila) (UniProt I7MML9). Description: affinity purification with mass spectrometry; conjugating Tetrahymena harvested 5 hours post mixing; FZZ-tagged bait; whole cell extract in 10 mM Tris-HCl pH 7.5, 1 mM MgCl2, 300 mM NaCl, 0.2% NP40, Benzonase; M2-agarose at 4°C; SAINTexpress, FDR ≤ 0.01 (Aip1: FDR ≤ 0.03).
For the substance “RebL1 (retinoblastoma binding protein 4/7-like 1), TTHERM_00688660 (from UniProt I7MMT8)”, the binding entry is recorded as “binds”.

For the substance “TFIID subunit 5 (TTHERM_00227160) (from UniProt Q23BW6)”, the binding entry is given as “binds”.

As for “Jinn1 (TTHERM_00227070) (from UniProt Q23BX5)”, the binding entry is on record as “binds”.

As for “transcriptional regulatory protein Spt6 (TTHERM_01093550) (from UniProt Q22BP0)”, the binding entry is “binds”.

With “transcription factor TFIID (TTHERM_00160910) (from UniProt Q22W41)”, the binding result is given as “binds”.

Take “Lin9^Tt (TTHERM_00591560) (from UniProt I7MKQ3)”: the binding result was “binds”.

In the case of “RNA polymerase subunit Rpc19 (TTHERM_00011760) (from UniProt Q22RW2)”, the binding entry is “binds”.

Regarding “small nuclear ribonucleoprotein Sm (TTHERM_01289080) (from UniProt Q22A33)”, the binding result was “binds”.

For the substance “MybL1, putative MYB-like TF (TTHERM_00842380) (from UniProt I7MAZ7)”, the binding entry is given as “binds”.

Take “Jinn2 (TTHERM_00147500) (from UniProt I7M9A9)”: the binding entry is listed as “binds”.

The target of a further experiment is RebL1-FZZ (Tetrahymena thermophila) (UniProt I7MMT8). The description is as above.
With “Forc1, Friend of RebL1 in conjugation (TTHERM_00841280) (from UniProt I7M4G6)”, the binding entry is “binds”.

On to “Jinn1 (TTHERM_00227070) (from UniProt Q23BX5)”, for which the binding entry is on record as “binds”.

On to “Anqa1 (Lin54-like protein, TTHERM_00766460) (from UniProt I7MML9)”, for which the binding entry is on record as “binds”.

As to “Lin9^Tt (TTHERM_00591560) (from UniProt I7MKQ3)”, the binding entry was “binds”.

With “MybL1, putative MYB-like TF (TTHERM_00842380) (from UniProt I7MAZ7)”, the binding result is on record as “binds”.

Regarding “TTHERM_00219420, similar to the human p60 (S. cerevisiae Cac2) subunit of the CAF1 complex (from UniProt I7MFN1)”, the binding result is “binds”.

On to “Jinn2 (TTHERM_00147500) (from UniProt I7M9A9)”, for which the binding result was “binds”.
